Results are given in words; binding and its absence hold for the method and conditions named. Binding can be weak; no strength is given.

By UniProt entry, the sequences of proteins in these tests, tags left out. Where a name states a change or a piece, a line headed by the entry shows the natural chain unless it says otherwise.
UniProt Q940D0: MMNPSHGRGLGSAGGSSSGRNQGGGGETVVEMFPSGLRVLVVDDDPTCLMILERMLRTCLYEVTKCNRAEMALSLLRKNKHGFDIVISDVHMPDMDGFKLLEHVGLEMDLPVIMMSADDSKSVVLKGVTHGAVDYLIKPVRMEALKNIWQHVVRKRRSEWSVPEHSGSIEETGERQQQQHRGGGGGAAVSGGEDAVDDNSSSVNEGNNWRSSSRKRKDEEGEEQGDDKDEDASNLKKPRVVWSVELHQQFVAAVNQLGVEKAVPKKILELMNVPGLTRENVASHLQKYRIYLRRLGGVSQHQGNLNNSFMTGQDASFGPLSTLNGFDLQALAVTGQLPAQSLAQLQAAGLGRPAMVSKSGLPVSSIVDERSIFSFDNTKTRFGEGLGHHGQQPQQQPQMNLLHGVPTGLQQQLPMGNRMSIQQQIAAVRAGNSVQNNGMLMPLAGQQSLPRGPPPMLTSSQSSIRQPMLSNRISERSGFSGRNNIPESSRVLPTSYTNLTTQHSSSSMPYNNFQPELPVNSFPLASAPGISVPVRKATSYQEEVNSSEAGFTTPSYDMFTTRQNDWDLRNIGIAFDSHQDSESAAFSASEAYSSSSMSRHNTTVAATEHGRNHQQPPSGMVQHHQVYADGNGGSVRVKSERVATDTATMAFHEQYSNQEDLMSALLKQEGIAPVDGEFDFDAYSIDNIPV

The assay concerns the target ARR1 (153-669) (Arabidopsis) (UniProt Q940D0). Briefly: BiFC with ARR fragments.

B1: KISS ME DEADLY 1 (KMD1) (other, Arabidopsis, UniProt Q9M8L2 1-354, looked up)
chain: MELIPNLPDDVARECLLRSSYQQFPVIASVCRAWNREVSLSQFLHQRKASRHSQELLILSQARVDPAGSGKIIATPEYRISVLESGSGLWTELPPIPGQTKGLPLFCRLVSVGSDLIVLGGLDPITWQAHDSVFVFSFLTSKWRVGATMPGVRRSFFGCASDSDRTVLVAGGHNEEKCALTSAMVYDVSEDKWTFLPDMARERDECKAVFHAGRFHVIGGYATEEQGQFSKTAESFDVSTWEWGPLTEDFLDDTGDTVSPPTCVAGGDLYACWGGDVMMFLNDKWQKVGQIPADVYNVTYVAVRPGMLIVIGNGKALAGYGEATVGYICDLSSSRWVKLETHGGHVQAGCFLEV
notes: Full-length protein; also called At1g80440
As for B1, the binding entry is on record as “binds”.

(Values after patent publication US20160289698A1 (TRUSTEES OF DARTMOUTH COLLEGE, published 2016).)
